doi:10.1101/2023.03.06.531332
Results are given in words; binding and its absence hold for the method and conditions named. In cells and extracts the contact can be indirect. Sequences can lack the tags named with a protein.

Molecular target: FLAG-NHERF1 S1S2 (GYGF to GAGA in the carboxylate-binding loops of both PDZ domains) (UniProt O14745)
Assay: co-IP

binding: no binding
B1: HA-GFP-NPT2A CT-AAA (carboxy-terminal -TRL639 PDZ ligand replaced with a triple Ala sequence) (protein, UniProt Q06495 1-639)
chain: MLSYGERLGSPAVSPLPVRGGHVMRGTAFAYVPSPQVLHRIPGTSAYAFPSLGPVALAEHTCPCGEVLERHEPLPAKLALEEEQKPESRLVPKLRQAGAMLLKVPLMLTFLYLFVCSLDMLSSAFQLAGGKVAGDIFKDNAILSNPVAGLVVGILVTVLVQSSSTSTSIIVSMVSSGLLEVSSAIPIIMGSNIGTSVTNTIVALMQAGDRTDFRRAFAGATVHDCFNWLSVLVLLPLEAATGYLHHITRLVVASFNIHGGRDAPDLLKIITEPFTKLIIQLDESVITSIATGDESLRNHSLIQIWCHPDSLQAPTSMSRAEANSSQTLGNATMEKCNHIFVDTGLPDLAVGLILLAGSLVLLCTCLILLVKMLNSLLKGQVAKVIQKVINTDFPAPFTWVTGYFAMVVGASMTFVVQSSSVFTSAITPLIGLGVISIERAYPLTLGSNIGTTTTAILAALASPREKLSSAFQIALCHFFFNISGILLWYPVPCTRLPIRMAKALGKRTAKYRWFAVLYLLVCFLLLPSLVFGISMAGWQVMVGVGTPFGALLAFVVLINVLQSRSPGHLPKWLQTWDFLPRWMHSLKPLDHLITRATLCCARPEPRSPPLPPRVFLEELPPATPSPRLALPAHHNAAAA
